These are yes or no findings as the source states them, for the method shown. In cells and extracts the contact can be indirect. Some results given as binding are weak or reduced against the parent protein; the word gives no strength.
Columns and labels:
[1] = target: CAMKII-α (Calmodulin kinase II) (mouse (endogenous in brain)) (UniProt P11798); test: co-IP; adult mouse brain homogenate (500 μg protein; 1% Triton X-100, 150 mM NaCl, HEPES pH 7.5), antibody against Ack1 or against CAMKII-α 2 h at 4°C, protein G-sepharose, Western blot; anti-GST antibody as control
[2] = target: Ack1 (activated Cdc42-associated tyrosine kinase) (mouse (endogenous in brain)) (UniProt O54967); test: as above

Chains of the proteins cited; added tags and fusions are not shown.
UniProt P11798: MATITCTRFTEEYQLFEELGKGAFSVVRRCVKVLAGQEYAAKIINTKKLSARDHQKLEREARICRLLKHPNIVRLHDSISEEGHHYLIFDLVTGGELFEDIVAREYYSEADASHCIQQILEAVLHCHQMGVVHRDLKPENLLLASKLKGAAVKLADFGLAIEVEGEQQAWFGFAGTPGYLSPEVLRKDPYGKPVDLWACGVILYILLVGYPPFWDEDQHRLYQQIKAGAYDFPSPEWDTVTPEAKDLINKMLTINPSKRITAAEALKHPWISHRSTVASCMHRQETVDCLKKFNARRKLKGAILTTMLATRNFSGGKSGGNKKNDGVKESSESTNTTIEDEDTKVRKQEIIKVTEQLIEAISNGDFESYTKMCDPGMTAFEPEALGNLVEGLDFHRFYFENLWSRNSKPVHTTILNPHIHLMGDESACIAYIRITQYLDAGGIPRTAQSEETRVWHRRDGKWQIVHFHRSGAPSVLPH
UniProt O54967: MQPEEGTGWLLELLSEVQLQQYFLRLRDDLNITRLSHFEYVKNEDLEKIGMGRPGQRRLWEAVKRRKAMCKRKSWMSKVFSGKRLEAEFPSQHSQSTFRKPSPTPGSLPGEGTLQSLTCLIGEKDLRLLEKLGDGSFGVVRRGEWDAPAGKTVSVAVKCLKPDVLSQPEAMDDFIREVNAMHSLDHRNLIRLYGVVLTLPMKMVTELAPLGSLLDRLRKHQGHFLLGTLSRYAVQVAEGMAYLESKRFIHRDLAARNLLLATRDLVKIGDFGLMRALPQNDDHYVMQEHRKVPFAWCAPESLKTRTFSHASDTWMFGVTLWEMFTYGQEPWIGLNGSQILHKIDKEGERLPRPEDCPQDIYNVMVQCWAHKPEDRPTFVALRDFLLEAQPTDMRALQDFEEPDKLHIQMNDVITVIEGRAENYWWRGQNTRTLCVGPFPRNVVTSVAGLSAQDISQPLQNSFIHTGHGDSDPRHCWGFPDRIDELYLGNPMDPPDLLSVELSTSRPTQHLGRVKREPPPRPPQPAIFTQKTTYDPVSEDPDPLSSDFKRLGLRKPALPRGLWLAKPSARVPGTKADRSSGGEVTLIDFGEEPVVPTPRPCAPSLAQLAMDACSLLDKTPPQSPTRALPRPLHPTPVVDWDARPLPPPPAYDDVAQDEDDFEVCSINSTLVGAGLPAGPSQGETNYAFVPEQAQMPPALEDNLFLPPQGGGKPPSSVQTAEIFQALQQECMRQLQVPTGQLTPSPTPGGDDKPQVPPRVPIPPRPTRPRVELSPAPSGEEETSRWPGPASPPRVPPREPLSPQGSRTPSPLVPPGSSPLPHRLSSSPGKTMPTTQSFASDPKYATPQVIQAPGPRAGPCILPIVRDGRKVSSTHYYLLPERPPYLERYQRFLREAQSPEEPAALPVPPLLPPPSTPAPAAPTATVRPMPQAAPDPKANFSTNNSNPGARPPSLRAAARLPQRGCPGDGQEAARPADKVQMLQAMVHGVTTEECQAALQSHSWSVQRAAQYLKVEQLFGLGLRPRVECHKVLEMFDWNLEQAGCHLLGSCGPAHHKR

Substance	binding [1]	binding [2]
Ack1 (activated Cdc42-associated tyrosine kinase) (from UniProt O54967 1-1055) (enzyme)	binds	–
CAMKII-α (Calmodulin kinase II) (from UniProt P11798 1-478) (enzyme)	–	binds
